No constants are given. Whether binding was seen depends on the method and setting. Binding seen in cells or lysates may run through a third protein. Here binding means that the protein was enriched with, or labelled near, the bait; the list need not be complete.
Target: BirA-Sox2 (UniProt P48431)
Assay: proximity labelling; proximity-utilizing biotinylation (PUB): BAP fusion and BirA fusion coexpressed in HEK293T cells (six-well plates), biotin pulse 30 min; Western blot with streptavidin-HRP, anti-His-HRP for the total BAP fusion

Chains of the proteins cited; added tags and fusions are not shown.
UniProt P48431: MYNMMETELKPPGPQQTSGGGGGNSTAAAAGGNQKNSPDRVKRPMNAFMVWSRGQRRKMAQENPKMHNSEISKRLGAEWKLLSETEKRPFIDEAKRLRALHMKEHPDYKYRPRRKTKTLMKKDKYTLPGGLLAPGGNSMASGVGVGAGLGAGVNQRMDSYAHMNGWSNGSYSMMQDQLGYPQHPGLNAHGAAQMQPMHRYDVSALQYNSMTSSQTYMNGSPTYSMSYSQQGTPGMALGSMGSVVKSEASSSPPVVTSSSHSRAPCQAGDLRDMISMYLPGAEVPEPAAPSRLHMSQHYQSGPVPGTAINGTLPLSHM
UniProt Q01860: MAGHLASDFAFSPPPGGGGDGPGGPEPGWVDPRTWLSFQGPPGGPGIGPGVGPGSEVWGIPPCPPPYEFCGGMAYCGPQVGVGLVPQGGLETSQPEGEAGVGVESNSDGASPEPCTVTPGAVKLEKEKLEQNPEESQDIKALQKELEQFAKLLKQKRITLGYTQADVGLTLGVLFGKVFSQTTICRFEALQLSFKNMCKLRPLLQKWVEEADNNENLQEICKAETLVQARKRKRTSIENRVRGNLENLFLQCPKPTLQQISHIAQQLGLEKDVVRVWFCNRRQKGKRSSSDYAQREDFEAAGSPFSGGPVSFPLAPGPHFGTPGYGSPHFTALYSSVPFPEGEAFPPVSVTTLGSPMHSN

## BAP-Oct4 (from UniProt Q01860 1-360)
  binding: binds

Reference: article PMC7022529
